Measurements published in the supplement of paper PMC4604168 (melanoma cell lines).
The other results are listed elsewhere or left out. Repeats are few or missing, and single values can be far off.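 Imaging used 1,536-well plates; nuclei positive for cleaved PARP by antibody were divided by total DNA-stained nuclei to yield the apoptosis fraction. Doses for screening kept most cells viable, and cell lines differ markedly in resting and induced cleaved-PARP levels.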

Test system: RPMI7951
Test: cleaved PARP positive nuclei fraction relative to DMSO control; melanoma cells; higher = more apoptosis
Settings: library dose: low library concentration; 72 h

Point of comparison: `Cc1ccc(Nc2nccc(N(C)c3ccc4c(C)n(C)nc4c3)n2)cc1S(N)(=O)=O` [Pazopanib] + C#Cc1cccc(Nc2ncnc3cc(OCCOC)c(OCCOC)cc23)c1 [erlotinib] (first compound 0.4 µM, partner dose 0.8 µM), “cleaved PARP positive nuclei fraction” value 59.3%. Against it:
- O=C(/C=C/c1cccnc1)NCCCCC1CCN(C(=O)c2ccccc2)CC1 + CS(=O)(=O)c1ccc(C(=O)Nc2ccc(Cl)c(-c3ccccn3)c2)c(Cl)c1 [vismodegib] (first compound 0.01 µM, partner dose 1 µM) — higher, 86.3%
- O=C(Nc1cc(C(F)(F)F)cc(C(F)(F)F)c1)c1cc(Cl)ccc1O + CCCCCCCCc1ccc(CCC(N)(CO)CO)cc1 [fingolimod] (first compound 0.016 µM, partner dose 2 µM) — higher, 192%
- CC[C@]1(O)C[C@H]2CN(CCc3c([nH]c4ccccc34)[C@@](C(=O)OC)(c3cc4c(cc3OC)N(C=O)[C@H]3[C@@](O)(C(=O)OC)[C@H](OC(C)=O)[C@]5(CC)C=CCN6CC[C@]43[C@@H]65)C2)C1 [vincristine] + CCCCCCCCCCCCCCCCCCOP(=O)([O-])OC1CC[N+](C)(C)CC1 [Perifosine] (first compound 0.0001 µM, partner dose 0.4 µM) — higher, 127%
- Cc1cc(Nc2cc(N3CCN(C)CC3)nc(Sc3ccc(NC(=O)C4CC4)cc3)n2)n[nH]1 [Tozasertib] + C#Cc1cccc(Nc2ncnc3cc(OCCOC)c(OCCOC)cc23)c1 [erlotinib] (first compound 0.006 µM, partner dose 0.8 µM) — lower, 40.2%
- Cc1cc(Nc2cc(N3CCN(C)CC3)nc(Sc3ccc(NC(=O)C4CC4)cc3)n2)n[nH]1 [Tozasertib] + CO[C@H]1C[C@@H]2CC[C@@H](C)[C@@](O)(O2)C(=O)C(=O)N2CCCC[C@H]2C(=O)O[C@H]([C@H](C)C[C@@H]2CC[C@@H](OCCO)[C@H](OC)C2)CC(=O)[C@H](C)/C=C(\C)[C@@H](O)[C@@H](OC)C(=O)[C@H](C)C[C@H](C)/C=C/C=C/C=C/1C [everolimus] (first compound 0.006 µM, partner dose 0.02 µM) — lower, 40.1%
- CCCCCCCCCCCCCCCCCCOP(=O)([O-])OC1CC[N+](C)(C)CC1 [Perifosine] + C=C(c1ccc(C(=O)O)cc1)c1cc2c(cc1C)C(C)(C)CCC2(C)C [Bexarotene] (first compound 0.4 µM, partner dose 2 µM) — higher, 82.4%
- O=c1[nH]nc(Sc2ncc([N+](=O)[O-])s2)n1-c1ccc2c(c1)OCCO2 + Cc1cc(Nc2cc(N3CCN(C)CC3)nc(/C=C/c3ccccc3)n2)n[nH]1 [ENMD2076] (first compound 0.2 µM, partner dose 0.04 µM) — higher, 70.9%
- CCCCCCCCCCCCCCCCCCOP(=O)([O-])OC1CC[N+](C)(C)CC1 [Perifosine] + Clc1ccc(Nc2nnc(Cc3ccncc3)c3ccccc23)cc1 [vatalanib] (first compound 0.4 µM, partner dose 2 µM) — higher, 66.2%
- Cc1cn(-c2cc(NC(=O)c3ccc(C)c(Nc4nccc(-c5cccnc5)n4)c3)cc(C(F)(F)F)c2)cn1 [nilotinib] + Cn1nnc2c(C(N)=O)ncn2c1=O [temozolomide] (first compound 0.2 µM, partner dose 2 µM) — higher, 90.5%

Test system: RVH-421
Test: as above
Settings: library dose: low library concentration; 72 h

Point of comparison: `O=C(Nc1cc(C(F)(F)F)cc(C(F)(F)F)c1)c1cc(Cl)ccc1O` + CO[C@H]1C[C@@H]2CC[C@@H](C)[C@@](O)(O2)C(=O)C(=O)N2CCCC[C@H]2C(=O)O[C@H]([C@H](C)C[C@@H]2CC[C@@H](OCCO)[C@H](OC)C2)CC(=O)[C@H](C)/C=C(\C)[C@@H](O)[C@@H](OC)C(=O)[C@H](C)C[C@H](C)/C=C/C=C/C=C/1C [everolimus] (first compound 0.016 µM, partner dose 0.02 µM), “cleaved PARP positive nuclei fraction” value 159%. Against it:
- CC[C@]1(O)C[C@H]2CN(CCc3c([nH]c4ccccc34)[C@@](C(=O)OC)(c3cc4c(cc3OC)N(C=O)[C@H]3[C@@](O)(C(=O)OC)[C@H](OC(C)=O)[C@]5(CC)C=CCN6CC[C@]43[C@@H]65)C2)C1 [vincristine] + CO[C@H]1C[C@@H]2CC[C@@H](C)[C@@](O)(O2)C(=O)C(=O)N2CCCC[C@H]2C(=O)O[C@H]([C@H](C)C[C@@H]2CC[C@@H](OCCO)[C@H](OC)C2)CC(=O)[C@H](C)/C=C(\C)[C@@H](O)[C@@H](OC)C(=O)[C@H](C)C[C@H](C)/C=C/C=C/C=C/1C [everolimus] (first compound 0.0001 µM, partner dose 0.02 µM) — lower, 131%
- COc1cc([C@@H]2c3cc4c(cc3[C@@H](O[C@@H]3O[C@@H]5CO[C@@H](C)O[C@H]5[C@H](O)[C@H]3O)[C@H]3COC(=O)[C@H]23)OCO4)cc(OC)c1O [etoposide] + CC1(C)CCC(c2ccc(Cl)cc2)=C(CN2CCN(c3ccc(C(=O)NS(=O)(=O)c4ccc(N[C@H](CCN5CCOCC5)CSc5ccccc5)c(S(=O)(=O)C(F)(F)F)c4)cc3)CC2)C1 [ABT263] (first compound 0.02 µM, partner dose 0.4 µM) — lower, 77.5%
- CC[C@]1(O)C[C@H]2CN(CCc3c([nH]c4ccccc34)[C@@](C(=O)OC)(c3cc4c(cc3OC)N(C=O)[C@H]3[C@@](O)(C(=O)OC)[C@H](OC(C)=O)[C@]5(CC)C=CCN6CC[C@]43[C@@H]65)C2)C1 [vincristine] + NC(=O)c1ccc(N(C(N)=O)c2c(F)cccc2F)nc1-c1ccc(F)cc1F [VX702] (first compound 0.0001 µM, partner dose 0.4 µM) — lower, 146%
- Cc1ccc(Nc2nccc(N(C)c3ccc4c(C)n(C)nc4c3)n2)cc1S(N)(=O)=O [Pazopanib] + C=CCNC1=C2C[C@@H](C)C[C@H](OC)[C@H](O)[C@@H](C)/C=C(\C)[C@H](OC(N)=O)[C@@H](OC)/C=C\C=C(/C)C(=O)NC(=CC1=O)C2=O [Tanespimycin] (first compound 0.4 µM, partner dose 0.002 µM) — lower, 83.6%
- O=C(Nc1cc(C(F)(F)F)cc(C(F)(F)F)c1)c1cc(Cl)ccc1O + Cn1c(=O)n(-c2ccc(C(C)(C)C#N)cc2)c2c3cc(-c4cnc5ccccc5c4)ccc3ncc21 [NVP-BEZ235] (first compound 0.016 µM, partner dose 0.004 µM) — lower, 113%
- Cc1cn(-c2cc(NC(=O)c3ccc(C)c(Nc4nccc(-c5cccnc5)n4)c3)cc(C(F)(F)F)c2)cn1 [nilotinib] + Cc1nc(Nc2ncc(C(=O)Nc3c(C)cccc3Cl)s2)cc(N2CCN(CCO)CC2)n1 [dasatanib] (first compound 0.2 µM, partner dose 0.004 µM) — higher, 246%
- Cc1cc(Nc2cc(N3CCN(C)CC3)nc(Sc3ccc(NC(=O)C4CC4)cc3)n2)n[nH]1 [Tozasertib] + O=C(O)c1ccc2c(c1)nc(Nc1cccc(Cl)c1)c1ccncc12 [CX4945] (first compound 0.006 µM, partner dose 0.4 µM) — lower, 81.5%
- Cc1cc(Nc2cc(N3CCN(C)CC3)nc(Sc3ccc(NC(=O)C4CC4)cc3)n2)n[nH]1 [Tozasertib] + Nc1cccc2c1CN(C1CCC(=O)NC1=O)C2=O [lenalidomide] (first compound 0.006 µM, partner dose 1 µM) — lower, 36.8%
- O=C(Nc1cc(C(F)(F)F)cc(C(F)(F)F)c1)c1cc(Cl)ccc1O + Cn1nnc2c(C(N)=O)ncn2c1=O [temozolomide] (first compound 0.016 µM, partner dose 2 µM) — lower, 57.6%
- COc1cc([C@@H]2c3cc4c(cc3[C@@H](O[C@@H]3O[C@@H]5CO[C@@H](C)O[C@H]5[C@H](O)[C@H]3O)[C@H]3COC(=O)[C@H]23)OCO4)cc(OC)c1O [etoposide] + Cn1sc(=O)n(Cc2ccccc2)c1=O [TDZD-8] (first compound 0.02 µM, partner dose 0.4 µM) — lower, 110%
- Cc1cn(-c2cc(NC(=O)c3ccc(C)c(Nc4nccc(-c5cccnc5)n4)c3)cc(C(F)(F)F)c2)cn1 [nilotinib] + Nc1nc(F)nc2c1ncn2[C@@H]1O[C@H](CO)[C@@H](O)[C@@H]1O [fludarabine] (first compound 0.2 µM, partner dose 0.2 µM) — higher, 251%
- O=c1[nH]nc(Sc2ncc([N+](=O)[O-])s2)n1-c1ccc2c(c1)OCCO2 + CO[C@H]1C[C@@H]2CC[C@@H](C)[C@@](O)(O2)C(=O)C(=O)N2CCCC[C@H]2C(=O)O[C@H]([C@H](C)C[C@@H]2CC[C@@H](OCCO)[C@H](OC)C2)CC(=O)[C@H](C)/C=C(\C)[C@@H](O)[C@@H](OC)C(=O)[C@H](C)C[C@H](C)/C=C/C=C/C=C/1C [everolimus] (first compound 0.2 µM, partner dose 0.02 µM) — lower, 141%
- O=c1[nH]nc(Sc2ncc([N+](=O)[O-])s2)n1-c1ccc2c(c1)OCCO2 + Cn1nnc2c(C(N)=O)ncn2c1=O [temozolomide] (first compound 0.2 µM, partner dose 2 µM) — lower, 91.9%
- Cc1cc(Nc2cc(N3CCN(C)CC3)nc(Sc3ccc(NC(=O)C4CC4)cc3)n2)n[nH]1 [Tozasertib] + C[C@@H](Oc1cc(-c2cnn(C3CCNCC3)c2)cnc1N)c1c(Cl)ccc(F)c1Cl [Crizotinib] (first compound 0.006 µM, partner dose 0.2 µM) — lower, 118%
